Reference: PubChem BioAssay AID1508600 (Functional Genomics Laboratory (NCATS/FGL), 2020)
The campaign covered roughly 53,000 sequences. About 3,700 (7%) were called active.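 The calls were made as follows: active = gene knockdowns whose robust z-score for IL-1 alpha signal is at least 2 or at most -2, so actives lie on both sides; inactive = the rest.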 The list shows a part of the results.

experiment: Components of the Cytosolic LPS Sensing Pathway: Gene Identification via Genome-wide siRNA Screen; conditions: RAW264.7 macrophages, IL-1a HTRF, actives lie on both sides, screened at 100 nM (by protocol), cells primed 5 h with Pam3CSK4 first;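 also: robust z of the log signal after scaling to non-targeting control siRNA wells of the plate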
Outline: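 Knockdown: 100 nM siRNA, 48h, RAW264.7. Stimulation: Pam3CSK4 5 h, then LipidA via TransIT-TKO 24 h. Output: supernatant IL-1a HTRF, negative-control-normalized, log robust z-score; viability by CellTiter-Glo.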

z-score, active:
CCAUGCUUCCCUUCAACAUTT against Adcy2 2.64, GGGAAAGUUUCUGCAUUCUTT against Lce1d 2.07, GGCACUCUCAGCUUUUGACTT against Olfr2 -2.43, GGUCUGGAAUGGAGAACAGTT against Suox 2.73, GUUCCUGUUCCACUACUGCTT against Sts -2.32, GGCUAAAGGAAACUCACCUTT against Duoxa2 -3.33, GCCUGUUCGGGAAUCUUACTT against Olfr297 2.42, GGCACUGUUCGGCAAGAAGTT against Trappc5 -2.1

z-score, inactive:
GGUGCAUGAAGAGUUAAAATT against Jade1 1.5, GGAGAUCUUCAAGAAUUCATT against Entpd5 0.196, GGUUUCCAUAUUUGGAUCCTT against Dhx40 0.0331, CCAAGUUCUAUCAACGAAGTT against Olfr175 -1.12, GCUAUCAUGCAAGAUGGCATT against Neurl4 0.00571, GGAGAUGGUUAUUUAAAGATT against Wbp2 -0.427, GGACAGAGAAAAAGUAUCATT against Eps8l1 0.51, CCACUACAACAACACUUAUTT against Keg1 0.84, CUCUGUCUUGAUUGUCAUUTT against Olfr1329 1.39, GGCUCUGUAUUAAAGAGUUTT against Ino80e 1.93, GGUGGAGAUGAUGGUUCAGTT against Tbxa2r -1.38, GGAAGUGGUGCGCAAGAUGTT against Fam83g -0.83, CCAUGGAUAUUAUCUGUACTT against Olfr538 -0.0186, GCACUUAGUCCUACAUGACTT against Fut1 -1.21, GGGUUACGGUUGUGGAUGUTT against Ugdh -0.936, GGACUACCUGCUCUUGAAATT against Wdr93 0.554, GGAGGCUGUGUUCUGAUGGTT against Mlycd 0.103, GCCCUACUGUAUUGUUAGCTT against Lamb1 -0.068, CCUAACAACCAGUUUAUGATT against Rasa1 -0.985, GGUCAUGAGUCCACUGUUUTT against Ciao1 -1.02, GGGCAUAGAGUCUCAAACUTT against Ptger1 -0.588, GCGGUAUCAUCAGUGAACCTT against Cxxc5 1.22, GGCUUCAUUGACAAGAAUATT against Myo1g 0.649, GGAACAAAAUACAUUCAAGTT against Vmn2r57 0.157, CCCUCUAUGCCAAAAGCUATT against Acer2 -0.394, GCAUAGGGUCAUUUCAAGCTT against Kif23 0.0957, GGAGUAGAUGACAACACUATT against Defb19 -0.401, GGGAAAUUCUGUUCUUUUGTT against Gng11 0.532, GGAUUGGAUAUUGAGAAGGTT against Rexo2 -1.72, GGAGUCUCUGAAGAAAACATT against Hus1 -0.596, GGUGUUAAACACUGAUUCUTT against Brs3 1.12, GAGCGAGUUCGAUUGCUUCTT against Cited4 -0.843, GGGAAGAAGACAAAAACAUTT against Acbd6 -1.03, GCUUCGGAAUCGGUUACCATT against Alg2 -1.28, GUAUCCUUAUUUUUGCCCATT against Vmn1r53 -1.27, GCUCUCCAUUACGUGCUUGTT against Rrp9 1.39, GGAUUUUAUCUCCUUUCAATT against Tecta -0.174, GGAGCUUCUGACUAAUUAUTT against Rad54l2 0.431, GCGCGCAGUGAACGAAAAATT against Mycn 1.14, GGCAGCUCCUCAUGAUAUUTT against Nagk 0.435, GGUGACCAGGCUUAAAUCGTT against Bet1l -0.721, CGAAGUGACAAUAAAUCAGTT against Snapc5 -0.0661, GGUACAACCUCGAAACUGGTT against Mpc1 0.173, CCAUCGAAUGAAACUCAUGTT against Trim24 0.337, GGAUUCUAGGAGAGAAUCATT against Cplx3 0.897, CGACCAUGUGACUUGUGUCTT against Lrp1b 0.0598, GGGAAGAAGAGGAAGGAUUTT against Taf1a -1.62, GCGUGGUACCUCAAGUCUATT against Map3k5 0.0421, GGAGGAAAGAAUGUGUAAATT against Birc3 0.386, GGGAGAUCUUUAAGAGAAATT against Tfap2a 0.783, GGAAUUCCUUCGUUUCCUUTT against Usp2 1.64, GGAUUAGCCUGGUCCUUUUTT against Dusp14 0.989, GCACAUGACCAACAAUACCTT against 4932438A13Rik -0.352, GGAAGACUUUGAAUACCACTT against Slc4a2 0.457, GGAUUUCUACUCUAAGCUGTT against Setdb1 -0.219, UUAUCCCGUGCAAAUGAAGTT against Akr1c19 -0.427, CCAUGUAUAUCUCAUAGCATT against Rnf26 0.646, GGACCAGGAACAGUUCGAATT against Rela 0.121, GGCAAAGACCCAAGAAGUGTT against 1700029H14Rik 1.77, CGAACCCUAGCGGAAAUUGTT against Nono -1.54, GGCACGUAUCAGUGUCAAGTT against Cd3g 0.111, GCUGGUUUCAUCCGCCAUATT against Dvl3 1.18, GGUCACAUUUUGUGAUUUUTT against Tmem30b 0.881, CCAUAAGCACAUGAUUGAGTT against Prl7c1 0.0877, GGUUUAGAAUGCAUAACAGTT against Dzank1 -0.217, GGAUUUGGAUUUGGAUUUUTT against Tsc22d3 0.387, GGAACUUCCCUAUAGUGAATT against Hdac3 -1.52, GGCAAGAAAAACACUUUAUTT against Parp3 1.85, GGAGAAGAAGAUUUUCCAGTT against Irf2 0.651, GGUGUUUAAAGAUUUCGUUTT against Dhrs2 -0.215, GGAAUAUGAAGAAGAAUUGTT against Adam7 -0.0664, GGAGUUGACCACACUGCUUTT against Smtn -1.09, GCUGACUUGCACAUUCGAUTT against Mpzl1 1.08, GGGAUACAGAUUUUGUUUATT against Olfr1261 -0.116, GGCUGUUGUACUACACCAATT against Olfr629 0.0486, UCCAGAGGAUCCGCUGUGATT against Krt74 -0.632, CGUAGAGUUAAUUACACAATT against Gria4 1.84, GCAACGAGCAAAAAGCAUGTT against Htr2a -0.794, GGACCAUAAAUGAGACCCATT against Sulf2 -1.89, GGGCAAGCAGUUCAUUCUGTT against Nr2c1 0.361, CCGGGAGCUACAAAAACUUTT against Ppp2r5d 1.83, GGAGCUCAACAAAGACCUGTT against Yrdc -0.098, GGAAUAUAGCGACAUCAUATT against Apba2 -0.0671, GGUUGAUCUAAAUGAAAUGTT against Idi1 0.402, GGUUAUUUAUGCCCUCAAUTT against Fam184b 1.58, GCAAUUUCGUGUGAGAGACTT against Rp2 -0.117, GGCCCACAAGGCUGUUUUGTT against Zfp131 0.459, GGCCUACGAUAUUUCACAATT against Oosp1 -0.969, GGAAGAGAUUUCUAAACUUTT against Mcoln2 -1.93, GGAGAAAAACUGAGCAGCCTT against Chst12 -1.72, GCUCUGCUGUAGACGUGAATT against Qrfprl 1.16, CCAUUGAACAACUGUCCUATT against Zmynd8 -0.558, GCAACACAUUCCUUAUGAUTT against Entpd6 -0.781, GGAACAGCUGAACUGCUCATT against Lmbr1l 0.0498, CGACAUCUCCCUAGACAAGTT against Itm2c 0.515, CCUUCCUUCGAAUUCGCUCTT against Dynlrb1 0.385, GGAGUACCUAUUUGUCAUCTT against Cnga2 -0.29, GUGGAAAUUAAUCUGGGUUTT against Tmem191c 0.394, GGCCAGUCUUAUGAAAUUCTT against Ubp1 -0.521
